According to PMC12310523:
No constants are given. Whether binding was seen depends on the method and setting. For some assays here: Binding seen in cells or lysates may run through a third protein. Some binding calls cover weakened binding; strength is not graded here. Where a sequence is shown, tags or fusion partners need not be part of it.

Assays:
[1] = target: T1, Flag–TTP (mouse), N-terminally Flag-tagged tristetraprolin (mouse) (UniProt P22893); test: co-IP; anti-Flag M2 agarose beads on lysates of HEK293T cells co-transfected with Flag–TTP and HA–RESIST or mCherry; lysate treated with RNase A; 150 mM NaCl, washes with 300 mM NaCl; immunoblot
T1 sequence: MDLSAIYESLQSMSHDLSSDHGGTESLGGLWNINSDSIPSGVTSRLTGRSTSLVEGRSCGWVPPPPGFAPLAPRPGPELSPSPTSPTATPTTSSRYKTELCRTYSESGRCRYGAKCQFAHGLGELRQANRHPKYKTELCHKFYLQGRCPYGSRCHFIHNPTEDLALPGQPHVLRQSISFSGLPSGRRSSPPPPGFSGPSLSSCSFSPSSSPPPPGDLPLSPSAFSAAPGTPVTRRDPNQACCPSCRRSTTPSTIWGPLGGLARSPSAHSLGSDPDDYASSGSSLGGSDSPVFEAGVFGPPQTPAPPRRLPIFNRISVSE

[2] = target: T2, full-length human His6–MBP–RESIST–StrepII (human) (UniProt Q3ZCQ2); test: pull-down; 250 pmol His6–MBP–RESIST–StrepII held by its C-terminal StrepII tag on streptavidin agarose; 500 pmol NOT9 module for 1 h; 50 mM HEPES pH 7.5, 200 mM NaCl, 0.03% Tween-20, 6 °C; eluted with 50 mM biotin; SDS–PAGE, Coomassie; both purified
T2 sequence: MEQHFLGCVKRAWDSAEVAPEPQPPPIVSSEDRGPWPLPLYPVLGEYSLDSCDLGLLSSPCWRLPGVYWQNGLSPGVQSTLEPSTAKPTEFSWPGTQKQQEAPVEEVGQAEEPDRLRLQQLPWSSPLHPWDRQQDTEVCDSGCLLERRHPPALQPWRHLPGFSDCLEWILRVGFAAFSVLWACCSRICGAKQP

Substance | binding [1] | binding [2]
CNOT1 (endogenous, HEK293T cells) (from UniProt A5YKK6 1-2376) | binds | –
NOT9 module: human CNOT9 and CNOT1 (amino acids 1351–1588) (from UniProt Q92600 1-299; A5YKK6 1351-1588) (complex) | – | binds
